In PMC2908540 one finds binding data, which are given here for two molecules.

No constants are given. Whether binding was seen depends on the method and setting. For part of these data: Binding seen in cells or lysates may run through a third protein. Some binding calls cover weakened binding; strength is not graded here. Sequences can lack the tags named with a protein.

Assay [1] addresses T1, FLAG-CP2 (mouse) (UniProt Q9ERA0).
T1 sequence: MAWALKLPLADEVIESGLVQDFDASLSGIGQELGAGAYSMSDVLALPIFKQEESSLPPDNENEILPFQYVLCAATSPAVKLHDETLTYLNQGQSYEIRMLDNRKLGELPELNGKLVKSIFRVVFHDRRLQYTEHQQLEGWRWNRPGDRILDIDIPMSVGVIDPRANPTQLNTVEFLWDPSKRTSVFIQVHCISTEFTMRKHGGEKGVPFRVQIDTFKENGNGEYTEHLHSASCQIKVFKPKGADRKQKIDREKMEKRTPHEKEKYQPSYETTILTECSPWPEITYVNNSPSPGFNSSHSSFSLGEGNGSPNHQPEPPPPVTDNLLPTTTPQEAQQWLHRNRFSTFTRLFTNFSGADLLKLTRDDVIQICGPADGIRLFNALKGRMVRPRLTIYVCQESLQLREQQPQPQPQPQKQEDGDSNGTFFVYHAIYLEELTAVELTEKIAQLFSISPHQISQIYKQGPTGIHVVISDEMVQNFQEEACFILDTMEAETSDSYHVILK
In words: co-IP; HEK293T co-transfected with CRTR-1 and a FLAG-tagged CP2 family member; whole cell lysate (50 mM Tris-HCl pH 7.5, 150 mM NaCl, 10% glycerol, 1% Triton X-100, 10 mM EDTA) precipitated with anti-FLAG M2 and protein-A agarose, 4°C; blotted with anti-CRTR-1 (Figure 3A).

The target of assay [2] is T1, FLAG-CP2 (mouse). Nature of the assay: native gel or EMSA; nuclear extracts of HEK293T over-expressing CRTR-1 and a CP2 family member, FAM-labelled alpha-globin CP2 response element probe, 4% native polyacrylamide gel, room temperature; heteromer seen as a complex of intermediate mobility on DNA, super-shift with anti-CRTR-1. For orientation: In EMSA bound probe runs differently from free probe, usually more slowly.

In assay [3] the target is T2, CRTR-1 (mouse) (UniProt Q3UNW5).
T2 sequence: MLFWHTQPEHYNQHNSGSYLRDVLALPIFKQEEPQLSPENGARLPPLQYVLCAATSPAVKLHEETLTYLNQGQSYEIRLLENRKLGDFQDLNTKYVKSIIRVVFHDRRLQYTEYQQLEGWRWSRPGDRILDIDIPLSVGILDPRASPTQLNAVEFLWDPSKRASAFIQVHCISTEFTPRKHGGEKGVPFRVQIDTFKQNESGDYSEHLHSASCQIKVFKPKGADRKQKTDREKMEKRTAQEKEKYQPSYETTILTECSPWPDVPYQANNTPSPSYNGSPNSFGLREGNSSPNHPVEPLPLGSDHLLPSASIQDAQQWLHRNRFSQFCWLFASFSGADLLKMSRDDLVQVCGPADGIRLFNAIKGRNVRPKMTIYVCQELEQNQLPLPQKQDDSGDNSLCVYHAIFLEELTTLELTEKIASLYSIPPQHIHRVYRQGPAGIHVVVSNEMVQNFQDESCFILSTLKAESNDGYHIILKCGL
In words: co-IP; reciprocal: HEK293T co-transfected with CRTR-1 and a FLAG-tagged CP2 family member; whole cell lysate precipitated with anti-CRTR-1 antibody and protein-A agarose, 4°C; blotted with anti-FLAG (Figure 3B).

B1: CRTR-1 (protein, UniProt Q3UNW5 1-479)
chain: T2 sequence
As for B1, the binding entry in assay [1] and in assay [2] was “binds” in each case.

B2: FLAG-CP2 (protein, UniProt Q9ERA0 1-502)
chain: T1 sequence
As to B2, the binding entry in assay [3] was “binds”.
